The source of these data is the supplement of paper PMC7752906.

The structures appear in SMILES notation. Counter-ions that a name gives are not always drawn. The list shows a part of the results. Repeats in this data set agree poorly, so a single value says little.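 Test system: Schistosoma mansoni schistosomula, roughly 40 per well, imaged in bright field over time and compared with wells given 0.1% DMSO. Distance read-out: the paper calls a drug a hit when its Mahalanobis distance is at least 2.47, three standard deviations above the DMSO control mean. Degeneracy is the share of worms classified opaque.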

The test system of this test is Schistosoma mansoni schistosomula. The test can be described thus: Mahalanobis distance of static-rate-frequency phenotype descriptors from DMSO controls (dimensionless); higher = stronger phenotypic change versus DMSO. The note with it: 10 µM; 72 h.
Regarding `Cc1ccc(Nc2c(F)cccc2Cl)c(CC(=O)O)c1` [Lumiracoxib], the Mahalanobis distance was inactive: 2.17.
`Fc1ccc(C(c2ccc(F)cc2)N2CCN(C/C=C/c3ccccc3)CC2)cc1` [flunarizine]: the Mahalanobis distance was active: 3.23.
The figure for `CN1CCc2c(c3ccccc3n2Cc2ccccc2)C1` [Mebhydrolin Naphthalenesulfonate] is active: 3.59; for `O=C(OC[C@H]1O[C@@H](OC(=O)c2cc(O)c(O)c(OC(=O)c3cc(O)c(O)c(O)c3)c2)[C@H](OC(=O)c2cc(O)c(O)c(OC(=O)c3cc(O)c(O)c(O)c3)c2)[C@@H](OC(=O)c2cc(O)c(O)c(OC(=O)c3cc(O)c(O)c(O)c3)c2)[C@@H]1OC(=O)c1cc(O)c(O)c(OC(=O)c2cc(O)c(O)c(O)c2)c1)c1cc(O)c(O)c(OC(=O)c2cc(O)c(O)c(O)c2)c1` [Tannic Acid] it is inactive: 2.3; for `CC(=O)O[C@@]12CO[C@@H]1C[C@H](O)[C@@]1(C)C(=O)[C@H](O)C3=C(C)[C@@H](OC(=O)[C@H](O)[C@@H](NC(=O)OC(C)(C)C)c4ccccc4)C[C@@](O)([C@@H](OC(=O)c4ccccc4)[C@H]21)C3(C)C` [Docetaxel] it is active: 2.76.
The same measure for `CC1CNc2c(cccc2S(=O)(=O)N[C@@H](CCCNC(=N)N)C(=O)N2CC[C@@H](C)C[C@@H]2C(=O)O)C1` (some centres not stated) [Argatroban]: inactive: 1.47; for `CN(C)CCN(Cc1ccccc1)c1ccccn1` [Tripelennamine]: active: 2.98.
The figure for `CN1C(=O)CC(c2ccccc2)C1=O` (configuration not stated) [Phensuccimide] is inactive: 2.38; for `Nc1ccn([C@@H]2O[C@H](CO)[C@@H](O)C2(F)F)c(=O)n1` [Gemcitabine] it is inactive: 1.78; for `N=C(N)NC(=O)Cc1c(Cl)cccc1Cl` [Guanfacine Hydrochloride] it is active: 3.6.
Consider `O=C(O)CC(O)(CC(=O)O)C(=O)O` [Citric Acid], for which the Mahalanobis distance is inactive: 2.2.
The figure for `COc1ccc2[nH]c([S+]([O-])Cc3ncc(C)c(OC)c3C)nc2n1` (configuration not stated) [Tenatoprazole] is inactive: 2.25.
The same measure for `O=C(O)CCCCC(=O)O` [Adipic Acid, Hexanedioic Acid]: inactive: 2.22; for `CN(C)CC/C=C1/c2ccccc2Sc2ccc(Cl)cc21` [Chlorprothixene Hydrochloride]: inactive: 1.91; for `CCN(CC)C(=O)c1cccc(C)c1` [Deet, Diethyltoluamide]: inactive: 1.98.
The same measure for `CCN(CC)C(=O)c1cccnc1` [Nikethamide]: inactive: 1.66.
With `CCCN(CCC)S(=O)(=O)c1ccc(C(=O)O)cc1` [Probenecid], the Mahalanobis distance was inactive: 2.31.
The same measure for `C[C@]12CC[C@@H]3c4ccc(O)cc4CC[C@H]3[C@@H]1CC[C@@H]2O` [Beta-estradiol]: inactive: 1.7; for `C[C@]12CC[C@@H]3c4ccc(O)cc4CC[C@H]3[C@@H]1CC[C@@H]2O` [Estradiol]: inactive: 1.41; for `COc1cc(C(=O)NCCCCCC(=O)O)cc(OC)c1OC` [Capobenic Acid]: inactive: 1.99.
The figure for `CC1=C(C(=O)O)N2C(=O)[C@@H](NC(=O)[C@H](N)C3=CCC=CC3)[C@H]2SC1` [Cephradine] is inactive: 1.21; for `N[C@@H](CCC(=O)N[C@@H](CS)C(=O)NCC(=O)O)C(=O)O` [Glutathione] it is inactive: 2.22; for `Cc1ncc(CO)c(CO)c1O` [Pyridoxine] it is inactive: 1.4.
The same measure for `N=C(N)NS(=O)(=O)c1ccc(N)cc1` [Sulfaguanidine]: inactive: 1.51; for `NC[C@@H]1CC[C@@H](N)[C@@H](O[C@H]2[C@H](O)[C@@H](O[C@H]3O[C@H](CO)[C@@H](O)[C@H](N)[C@H]3O)[C@H](N)C[C@@H]2N)O1` [Dibekacin]: inactive: 1.77.
Regarding `CCCCCCCCCCCCCCCC(=O)OC[C@@H](NC(=O)C(Cl)Cl)[C@H](O)c1ccc([N+](=O)[O-])cc1` [Chloramphenicol Palmitate], the Mahalanobis distance is inactive: 2.01.
The figure for `Clc1ccc(Cn2c(CN3CCCC3)nc3ccccc32)cc1` [Clemizole Hydrochloride] is inactive: 2.09; for `Clc1ccc(CO/N=C(\Cn2ccnc2)c2ccc(Cl)cc2Cl)c(Cl)c1` [Oxiconazole] it is active: 2.6.
The figure for `COc1ccc2cc([C@H](C)CO)ccc2c1` [Naproxol] is inactive: 1.35; for `C#C[C@]1(OC(C)=O)CC[C@H]2[C@@H]3CCC4=CC(=NO)CC[C@@H]4[C@H]3CC[C@@]21CC` (mixture of isomers) [Norgestimate] it is active: 2.98; for `CCCCC(CC)CCC(CC(C)C)OS(=O)(=O)O` (configuration not stated) [Sodium Tetradecyl Sulfate] it is inactive: 2.42.
The figure for `COc1cc(C(=O)NCc2ccc(OCCN(C)C)cc2)cc(OC)c1OC` [Trimethobenzamide Hydrochloride] is inactive: 1.98.
On to `CC(=O)[C@@]1(O)CC[C@H]2[C@@H]3C[C@H](C)C4=CC(=O)C=C[C@]4(C)[C@@]3(F)[C@@H](O)C[C@@]21C` [Fluorometholone], for which the Mahalanobis distance was inactive: 1.77.
The figure for `CCc1nc(N)nc(N)c1-c1ccc(Cl)cc1` [Pyrimethamine] is inactive: 2.26; for `C1CCC(C(CC2CCCCN2)C2CCCCC2)CC1` (configuration not stated) [perhexiline] it is active: 2.72; for `CCOc1nc2cccc(C(=O)OCc3oc(=O)oc3C)c2n1Cc1ccc(-c2ccccc2-c2noc(=O)[nH]2)cc1` [Azilsartan Kamedoxomil] it is inactive: 1.61.
The same measure for `O=C(O)c1cn(C2CC2)c2cc(N3CCNCC3)c(F)cc2c1=O` [Ciprofloxacin]: inactive: 1.57; for `CCOC(=O)COc1ccc2c(=O)cc(-c3ccccc3)oc2c1` [Efloxate]: inactive: 2.06.
As for `O=C(O)C(=O)O.[NH-][C@@H]1CCCC[C@H]1[NH-].[Pt+2]` [Oxaliplatin], the Mahalanobis distance was inactive: 1.59.
The figure for `C[C@H]1c2cccc(O)c2C(=O)C2=C(O)[C@]3(O)C(=O)C(C(N)=O)=C(O)[C@@H](N(C)C)[C@@H]3[C@@H](O)[C@@H]21` [Doxycycline] is inactive: 1.34; for `O=C1/C(=C/c2cccs2)CCC/C1=C\c1cccs1` [tenylidone] it is active: 2.61.
`Clc1ccc(C(Cn2ccnc2)OCc2ccsc2Cl)c(Cl)c1` (configuration not stated) [Tioconazole]: the Mahalanobis distance was active: 2.48.
